Values of other authors, collected in patent publication US20260191991A1, “COMPSTATIN ANALOGS FOR VECTOR-BASED THERAPY” (AMYNDAS PHARMACEUTICALS US LLC, priority 2022, published 2026).
At least one peptide structure holds a part that was inferred or is arguable (an end, a ring closure or a residue).

Protein sequences, listed by entry. Tags and fused reporters are not part of them. Residues count along the entry.
UniProt P01024, 23-1663: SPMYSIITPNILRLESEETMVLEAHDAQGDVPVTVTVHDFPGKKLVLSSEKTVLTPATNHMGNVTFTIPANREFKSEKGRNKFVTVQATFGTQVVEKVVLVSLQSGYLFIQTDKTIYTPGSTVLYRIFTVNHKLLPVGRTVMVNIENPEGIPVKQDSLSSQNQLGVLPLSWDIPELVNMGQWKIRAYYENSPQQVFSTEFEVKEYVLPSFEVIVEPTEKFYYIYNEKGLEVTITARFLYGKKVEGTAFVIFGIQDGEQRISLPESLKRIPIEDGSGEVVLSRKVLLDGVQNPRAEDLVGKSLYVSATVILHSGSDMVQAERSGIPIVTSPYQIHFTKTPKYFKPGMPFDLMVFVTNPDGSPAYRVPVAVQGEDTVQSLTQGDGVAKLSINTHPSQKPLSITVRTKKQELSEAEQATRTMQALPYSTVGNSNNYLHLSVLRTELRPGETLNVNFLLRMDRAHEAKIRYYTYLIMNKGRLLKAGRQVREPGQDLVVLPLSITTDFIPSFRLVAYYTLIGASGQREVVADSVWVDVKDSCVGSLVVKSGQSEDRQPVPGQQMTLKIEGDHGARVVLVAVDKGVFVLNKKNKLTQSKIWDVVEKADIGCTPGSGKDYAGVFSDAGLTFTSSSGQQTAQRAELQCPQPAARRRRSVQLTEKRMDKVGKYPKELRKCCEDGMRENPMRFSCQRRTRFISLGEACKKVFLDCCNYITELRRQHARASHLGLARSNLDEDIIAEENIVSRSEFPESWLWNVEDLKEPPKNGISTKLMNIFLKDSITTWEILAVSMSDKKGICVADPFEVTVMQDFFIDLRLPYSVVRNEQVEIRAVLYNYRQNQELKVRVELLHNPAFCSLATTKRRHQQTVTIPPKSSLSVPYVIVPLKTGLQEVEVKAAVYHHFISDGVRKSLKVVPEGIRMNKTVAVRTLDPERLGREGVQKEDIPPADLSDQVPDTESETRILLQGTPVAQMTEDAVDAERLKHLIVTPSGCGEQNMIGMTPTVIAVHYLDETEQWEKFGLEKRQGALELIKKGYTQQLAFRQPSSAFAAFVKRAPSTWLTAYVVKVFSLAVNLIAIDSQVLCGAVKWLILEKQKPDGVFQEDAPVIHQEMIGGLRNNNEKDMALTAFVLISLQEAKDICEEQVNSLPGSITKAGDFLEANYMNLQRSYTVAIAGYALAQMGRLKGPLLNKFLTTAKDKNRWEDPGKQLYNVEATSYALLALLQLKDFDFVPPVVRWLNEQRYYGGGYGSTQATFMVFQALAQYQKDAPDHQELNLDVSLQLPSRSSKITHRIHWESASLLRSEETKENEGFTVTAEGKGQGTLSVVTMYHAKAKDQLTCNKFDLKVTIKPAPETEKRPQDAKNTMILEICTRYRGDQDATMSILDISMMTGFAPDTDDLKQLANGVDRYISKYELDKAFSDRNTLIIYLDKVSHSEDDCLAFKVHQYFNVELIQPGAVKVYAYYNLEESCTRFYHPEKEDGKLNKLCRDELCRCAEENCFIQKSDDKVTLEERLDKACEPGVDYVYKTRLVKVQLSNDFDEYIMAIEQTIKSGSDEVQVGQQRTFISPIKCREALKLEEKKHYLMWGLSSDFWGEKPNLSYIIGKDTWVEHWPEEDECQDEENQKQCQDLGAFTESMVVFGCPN

Target: C3 (Homo sapiens, UniProt P01024)
Parameters: host or cells: endogenous C3 of treated patients (in vivo)
Settings: patients with severe COVID-19; for the duration of treatment; cited from earlier work

CC[C@H](C)[C@H](NC(=O)[C@H](N)Cc1ccc(O)cc1)C(=O)N[C@H]1CSSC[C@@H](C(=O)N(C)[C@H](C(N)=O)[C@@H](C)CC)NC(=O)[C@H](CCCNC(=N)N)NC(=O)[C@H](Cc2c[nH]cn2)NC(=O)[C@H](C)NC(=O)CN(C)C(=O)[C@H](Cc2c[nH]c3ccccc23)NC(=O)[C@H](CC(=O)O)NC(=O)[C@H](CCC(N)=O)NC(=O)[C@H](Cc2cn(C)c3ccccc23)NC(=O)[C@H](C(C)C)NC1=O [Cp40, dTyr-Ile-[Cys-Val-1MeTrp-Gln-Asp-Trp-Sar-Ala-His-Arg-Cys]-mIle]
systemic C3 inhibition: complete and sustained
